{"source": "patent US20250066504A1", "about": "“USE OF OREGOVOMAB AND PARP INHIBITORS FOR TREATMENT OF OVARIAN CANCER” (CANARIABIO INC., priority 2022, published 2025)", "origin": "cited, not measured here", "key": {"[1]": {"settings": "after 6 weeks"}, "[2]": {"settings": "human, in vivo"}}, "note": "Like-named read-outs stand apart in the source and are kept apart here."}
{"substance": "Oregovomab", "values": [{"measurement": "patients with early humoral response", "setting": "[1]; alternate delayed schedule of chemoimmunotherapy", "value": 35, "unit": "%"}, {"measurement": "patients with early humoral response", "setting": "[1]; preferred (simultaneous) schedule of chemo-immunotherapy, 2 mg per infusion", "value": 75, "unit": "%"}, {"measurement": "antibody response to the oregovomab variable domain portion", "setting": "[2]", "value": "induced"}, {"measurement": "patients who generated an antibody response to the immunoglobulin constant region", "setting": "[2]", "value": "More than 90%"}]}
